Experimental data reported in the supplement of paper PMC9233669.
Variants at the floor of the assay are shown more often than the library holds them.

Tests used:
biotinyl-Trp-oxazolone = experiment: self-aminoacylation, catalytic enhancement (BWO) (fold over background); higher = more active; k-Seq, kA / k0A0; sequences stand for … in GGGAAUGGAUCCACAUCUACGAAUUC…UUCACUGCAGACUUGACGAAGCUG
Outline: (§1)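 Mutagenized RNA pools with a 21-nt variable region (0.43 μM) were reacted with each biotinyl-aminoacyl-oxazolone at 2–1250 μM for 90 minutes at room temperature, in 50 μL HEPES/NaCl/KCl/MgCl2/CaCl2 buffer containing 5% acetonitrile at pH 6.9–7.0. RNA captured on streptavidin was quantified by triplicate qPCR and by Illumina sequencing. The fraction reacted for each sequence was fit to a pseudo-first-order model with bootstrapping, and catalytic enhancement is the median kA divided by the uncatalyzed rate, taken as the low-activity peak of a bimodal Gaussian fit.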

biotinyl-Val-oxazolone = experiment: self-aminoacylation, catalytic enhancement (BVO) (fold over background); higher = more active; k-Seq, kA / k0A0; sequences stand for … in GGGAAUGGAUCCACAUCUACGAAUUC…UUCACUGCAGACUUGACGAAGCUG
Outline: as §1

biotinyl-Ile-oxazolone = experiment: self-aminoacylation, catalytic enhancement (BIO) (fold over background); higher = more active; k-Seq, kA / k0A0; sequences stand for … in GGGAAUGGAUCCACAUCUACGAAUUC…UUCACUGCAGACUUGACGAAGCUG
Outline: as §1

biotinyl-Leu-oxazolone = experiment: self-aminoacylation, catalytic enhancement (BLO) (fold over background); higher = more active; k-Seq, kA / k0A0; sequences stand for … in GGGAAUGGAUCCACAUCUACGAAUUC…UUCACUGCAGACUUGACGAAGCUG
Outline: as §1

biotinyl-Met-oxazolone = experiment: self-aminoacylation, catalytic enhancement (BMO) (fold over background); higher = more active; k-Seq, kA / k0A0; sequences stand for … in GGGAAUGGAUCCACAUCUACGAAUUC…UUCACUGCAGACUUGACGAAGCUG
Outline: as §1

Sequence	self-aminoacylation (biotinyl-Trp-oxazolone)	self-aminoacylation (biotinyl-Val-oxazolone)	self-aminoacylation (biotinyl-Ile-oxazolone)	self-aminoacylation (biotinyl-Leu-oxazolone)	self-aminoacylation (biotinyl-Met-oxazolone)
AAGUUAGCUAAUAGUCACAAG [Fam3.1 aminoacylation ribozyme variant]	1.59	1.38	1.55	1.16	1.48
CUUCUACAAACAAUCGGUCUG [Fam1A.1 aminoacylation ribozyme variant]	0.564	0.831	0.694	0.623	0.763
CUUCACCUAGGUCAACGGGUG [Fam2.2 aminoacylation ribozyme variant]	1.86	1.97	1.81		
AAGUUUUCUAAUAGCCGCAAG [Fam3.1 aminoacylation ribozyme variant]	1.23	1.71	1.46	1.87	1.65
AAGUUUGCCAAUAGUCGCAAA [Fam3.1 aminoacylation ribozyme variant]	1.79	1.88	1.97	1.64	
UCGUUUGCUAAUAGUCGCAAG [Fam3.1 aminoacylation ribozyme variant]	1.87	1.04	1.19	0.971	1.21
AAGUUUUCUAAUAGUUGCAAG [Fam3.1 aminoacylation ribozyme variant]	1.48	1.26	1.77	1.52	1.32
AUUCACCUACGUCAUCUGGUG [Fam2.2 aminoacylation ribozyme variant]	1.81	1.55	1.41		
CUACGUCAAAGAAUCGGUCUG [Fam1A.1 aminoacylation ribozyme variant]	0.909	1.52	1.49	1.83	1.15
AUUCACCUAGGUGAGCGGGUG [Fam2.2 aminoacylation ribozyme variant]	1.69	1.63	1.42	1.66	1.5
AAGGUUGCUUAUAGUCGCAAG [Fam3.1 aminoacylation ribozyme variant]	1.67	1.69	1.71	1.43	1.28
AUUCACCUAGGUCAUCGCGAG [Fam2.2 aminoacylation ribozyme variant]	1.22	2.31	1.58	1.89	1.76
AAGGUUGCUAAUAGUCGCCAG [Fam3.1 aminoacylation ribozyme variant]	1.61	1.25	1.6	1.04	1.46
CCACACUUCAGGCAAUCGCUC [Fam1B.1 aminoacylation ribozyme variant]	1.84				2
AUUCCGCUGGUCAUCGAGUGA [Fam2.1 aminoacylation ribozyme variant]	8.05	3.7	3.34	6.79	6.08
ACGUGUGCUAAUAGUCGCAAG [Fam3.1 aminoacylation ribozyme variant]	1.63	1.28	1.6	1.68	1.62
AUUACCCUGGUCCUCGAGUGC [Fam2.1 aminoacylation ribozyme variant]	1.31	1.06	0.969	1.07	0.658
AUUCACCUACGUCGUCGGGUG [Fam2.2 aminoacylation ribozyme variant]	1.83	1.52	1.56		1.31
CCACACUUCACGCAUUCGGUC [Fam1B.1 aminoacylation ribozyme variant]	1.49	1.96	1.48	1.62	1.5
AAGCUUACUAAUAGUCGCAAG [Fam3.1 aminoacylation ribozyme variant]	1.97	1.69	1.63	1.33	1.54
AAGUCUGCUAUUAGUCGCAAG [Fam3.1 aminoacylation ribozyme variant]	1.27	1.07	1.03	1.69	1.41
AACUUUGCUAAUACUCGCAAG [Fam3.1 aminoacylation ribozyme variant]	1.26	1.35		1.73	1.44
AGUACCCUGGUCAUCGAGUAA [Fam2.1 aminoacylation ribozyme variant]	1.7	1.53	1.47		
AAGUUUACUAAUAGUCGUAAG [Fam3.1 aminoacylation ribozyme variant]	1.12	1.11	1.1	0.974	1.16
UAGUUGGCUAAUAGUCGCAAG [Fam3.1 aminoacylation ribozyme variant]	1.76	1.93	1.71	1.6	1.94
CUACUUCAAACACUCCGUCUG [Fam1A.1 aminoacylation ribozyme variant]	0.771	0.869	0.772	0.727	0.845
AAGUUUGCUAAUUGUCGCAAU [Fam3.1 aminoacylation ribozyme variant]	1.27	1.51	1.65	1.81	1.82
AUUCACCGAGGUCAUCGGGUC [Fam2.2 aminoacylation ribozyme variant]	1.44				1.97

Sequence	self-aminoacylation (biotinyl-Trp-oxazolone)	self-aminoacylation (biotinyl-Val-oxazolone)	self-aminoacylation (biotinyl-Ile-oxazolone)	self-aminoacylation (biotinyl-Leu-oxazolone)	self-aminoacylation (biotinyl-Met-oxazolone)
CCAGACUUCAAGCAAUCGGUC [Fam1B.1 aminoacylation ribozyme variant]	26	1.54	1.45	2.04	1.42
CUACAUCAAACAAUCGGUCUU [Fam1A.1 aminoacylation ribozyme variant]	1.25	0.748	0.69	0.615	0.791
AUUACCCUGGUAACCGAGUGA [Fam2.1 aminoacylation ribozyme variant]	14.2	5.58	5.22	12.2	12.5
AAGUUUGCUAAUCGUCGCAAG [Fam3.1 aminoacylation ribozyme variant]	1.49	0.877	0.92	0.789	0.9
AUUCACCUAGGUCAACGAGUG [Fam2.2 aminoacylation ribozyme variant]	1.81	1.95			
AAGCUUGCUAACAGUCGCAAG [Fam3.1 aminoacylation ribozyme variant]	1.39	1.73	1.83		
AAGUUUGCGAAUAGUCGCAAU [Fam3.1 aminoacylation ribozyme variant]	1.77	1.61	1.77	1.98	
AAUUUAGCUAAUAGUCGCAAG [Fam3.1 aminoacylation ribozyme variant]	1.81	1.57		1.92	1.82
AUUCACCGAGGUCAUCAGGUG [Fam2.2 aminoacylation ribozyme variant]	1.81	1.59	1.28		1.81
AUUACCCUGGUCAUCCAGAGA [Fam2.1 aminoacylation ribozyme variant]	1.44	1.47	1.22		1.71
AUUCACCUAAGUCAUCGGGUU [Fam2.2 aminoacylation ribozyme variant]	1.71	1.78	1.95		
AAGUUCGCUAAUAGUCGCACG [Fam3.1 aminoacylation ribozyme variant]	1.64	1.74			1.77
CAGUUUGCUAAUAGUCGCAAA [Fam3.1 aminoacylation ribozyme variant]	1.69	1.62		1.98	1.96
CUUCUUCAAAUAAUCGGUCUG [Fam1A.1 aminoacylation ribozyme variant]		0.9	0.947	1.05	0.979
CUACUUCAAACGAUCCGUCUG [Fam1A.1 aminoacylation ribozyme variant]		0.808	0.783	0.787	0.958
AUUCACCUAGGUCAGCGUGUG [Fam2.2 aminoacylation ribozyme variant]	1.91	1.71	1.58		
CAAAUUCAAACAAUCGGUCUG [Fam1A.1 aminoacylation ribozyme variant]		0.879	0.809	0.945	0.825
AAGUUUGCUAACAGUCGUAAG [Fam3.1 aminoacylation ribozyme variant]		1.07	1.02	0.828	1.17
CUGCUUCAAACAAUCGAUCUG [Fam1A.1 aminoacylation ribozyme variant]		0.638	0.66	0.649	0.615
CCAAUCUUCAAGCAAUCGGUC [Fam1B.1 aminoacylation ribozyme variant]		1.06	1.14	1.33	0.942
CUACUUCAAACAAUCUCUCUG [Fam1A.1 aminoacylation ribozyme variant]		0.823	0.705	0.771	0.648
AUUCACCAAGGUCAUCCGGUG [Fam2.2 aminoacylation ribozyme variant]		4.96	5.51	11.4	7.8
UCACAAUUCAAGCAAUCGGUC [Fam1B.1 aminoacylation ribozyme variant]		0.986	1.04	0.949	0.989
AUUCACCUCGGUCAUCAGGUG [Fam2.2 aminoacylation ribozyme variant]		1.42	1.04	1.29	1.25
CGACUUCAAACAAUCGGACUG [Fam1A.1 aminoacylation ribozyme variant]		0.956	1.28	1.15	1.04
AUAUUUCAAACAAUCGGUCUG [Fam1A.1 aminoacylation ribozyme variant]		0.834	0.897	0.891	0.844
CCACACUUCAAAUAAUCGGUC [Fam1B.1 aminoacylation ribozyme variant]		0.926	0.924	1.09	0.769
